Measured values taken from patent US7241737B2 (priority 2000, dated 2007).

Experiment: Boc solid-phase peptide synthesis; benzhydrylamine resin; diisopropylcarbodiimide
Conditions: whole synthesis, scale 0.25 mmole

Cpa-c[D-Cys-Pal-D-Trp-Lys-Val-Cys]-Cpa-amide
isolated mass: 125 mg
